Results are given in words; binding and its absence hold for the method and conditions named. Some entries that bind do so weakly or less than the wild type.
Biological target: Mannan-Binding-Lectin (MBL) from human serum, captured on a mannan-coated plate (human) (UniProt P11226)
Assay: recombinant MASP-2 added to a mannan-coated plate preloaded with diluted A/B serum; plate-bound activity read with pro-urokinase and pyro-Glu-Gly-Arg-pNA

By UniProt entry, the sequences of proteins in these tests, tags left out. Residues count along the entry.
UniProt P11226, residues 21-248: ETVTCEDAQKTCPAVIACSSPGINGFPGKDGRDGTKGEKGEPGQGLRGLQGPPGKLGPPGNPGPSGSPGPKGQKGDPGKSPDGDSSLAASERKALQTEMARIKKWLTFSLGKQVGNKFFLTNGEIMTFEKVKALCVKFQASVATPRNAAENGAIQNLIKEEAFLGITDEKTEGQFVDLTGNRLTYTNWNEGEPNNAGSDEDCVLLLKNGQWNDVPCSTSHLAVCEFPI
UniProt O00187, residues 16-686: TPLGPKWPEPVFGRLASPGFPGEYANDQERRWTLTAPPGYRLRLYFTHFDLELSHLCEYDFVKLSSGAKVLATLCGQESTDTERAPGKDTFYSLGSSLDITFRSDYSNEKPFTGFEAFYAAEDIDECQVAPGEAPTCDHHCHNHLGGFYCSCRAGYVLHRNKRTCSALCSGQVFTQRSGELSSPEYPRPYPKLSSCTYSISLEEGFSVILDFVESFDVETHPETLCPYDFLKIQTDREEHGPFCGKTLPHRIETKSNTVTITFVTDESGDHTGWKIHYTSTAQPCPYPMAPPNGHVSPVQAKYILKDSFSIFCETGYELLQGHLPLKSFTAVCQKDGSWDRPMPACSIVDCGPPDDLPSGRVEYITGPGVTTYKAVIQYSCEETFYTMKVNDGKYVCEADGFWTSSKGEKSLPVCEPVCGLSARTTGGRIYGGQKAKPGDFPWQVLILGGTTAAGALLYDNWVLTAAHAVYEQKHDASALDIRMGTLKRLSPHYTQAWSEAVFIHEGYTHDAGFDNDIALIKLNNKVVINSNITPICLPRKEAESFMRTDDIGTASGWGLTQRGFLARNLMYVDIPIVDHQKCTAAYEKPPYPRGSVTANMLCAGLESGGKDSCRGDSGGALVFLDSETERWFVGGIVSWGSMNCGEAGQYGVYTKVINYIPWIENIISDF

binding: binds
Substance: purified recombinant MASP-2 (active form) (from UniProt O00187 16-686) (enzyme)
